Test results: the supplement of paper PMC3682954
Values joined by “and” are separate entries in the source; they are usually repeats but may differ in a detail not shown here. Equal values may be shown once. Where a name gives a salt, the structure may show the parent alone. ± gives the standard deviation of the averaged measurements. Some of the results follow. Repeats are few or missing, and single values can be far off.

System: RAW 264.7
Experiment: HMGB1-induced TNF-alpha production relative to HMGB1-stimulated control; higher = more TNF-alpha secretion (less inhibition)
Details: stimulus: HMGB1 5 ug/ml, 18 h
[1] = compound concentration: 1 ug/ml

Row | Compound | HMGB1-induced TNF-alpha production (compound concentration: 3 uM) | HMGB1-induced TNF-alpha production [1] [%]
1 | N#C/C(=C\c1ccc(O)c(O)c1)C(=O)c1ccc(O)c(O)c1 [Tyrphostin AG 538] | 88.9% | –
2 | CO[C@H]1O[C@@H]2O[C@@]3(C)CC[C@H]4[C@H](C)CC[C@@H]([C@H]1C)[C@@]24OO3 | 104% | –
3 | O=C(O)c1cc(O)c2c(c1)[C@@H]([C@H]1c3cc(C(=O)O)cc(O)c3C(=O)c3c(O[C@@H]4O[C@H](CO)[C@@H](O)[C@H](O)[C@H]4O)cccc31)c1cccc(O[C@@H]3O[C@H](CO)[C@@H](O)[C@H](O)[C@H]3O)c1C2=O [Sennoside B] | – | 63.5
4 | CC1(C2CCCC2)Cc2cc(OCC(=O)O)c(Cl)c(Cl)c2C1=O (configuration not stated) | 107% | –
5 | CCOC(=O)[C@]12CC1/C(=N\O)c1ccccc1O2 (some centres not stated) | 89.8% | –
6 | O=c1cc(-c2ccc(O)c(O)c2)oc2cc(O)cc(O)c12 [Luteolin] | 125% | –
7 | CC(C)(C(=O)c1cccnc1)c1cccnc1 [Metyrapone] | 99.8% | –
8 | NCCCCNCCCN [Spermidine trihydrochloride] | 102% | –
9 | N[C@H](CO)C(=O)O [D-Serine] | 117% | –
10 | NC(Cc1cccc(-c2ccccc2CP(=O)(O)O)c1)C(=O)O (stereo not drawn) [Phenylbenzene-omega-phosphono-alpha-amino acid] | 108% | –
11 | O=S(=O)(c1cccc2cnccc12)N1CCNCC1 | 88.5% | –
12 | CC(=O)N(O)CCCCCNC(=O)CCC(=O)N(O)CCCCCNC(=O)CCC(=O)N(O)CCCCCN | 78.3% | –
13 | CC(=O)N(O)CCCCCNC(=O)CCC(=O)N(O)CCCCCNC(=O)CCC(=O)N(O)CCCCCN [Deferoxamine mesylate] | 106% | –
14 | O=C1Cc2cc(CCN3CCN(c4nsc5ccccc45)CC3)c(Cl)cc2N1 [Ziprasidone hydrochloride monohydrate] | 91.9% | –
15 | O=C1Cc2cc(CCN3CCN(c4nsc5ccccc45)CC3)c(Cl)cc2N1 [Ziprasidone  Hydrochloride] | 89.1% | –
16 | CC(C)/N=c1\cc2n(-c3ccc(Cl)cc3)c3ccccc3nc-2cc1Nc1ccc(Cl)cc1 | 92 ± 20% | –
17 | CC(C)/N=c1\cc2n(-c3ccc(Cl)cc3)c3ccccc3nc-2cc1Nc1ccc(Cl)cc1 [Clofazimine] | 65.8% | –
18 | CCN[C@H]1C[C@H](C)S(=O)(=O)c2sc(S(N)(=O)=O)cc21 [Dorzolamide] | 123% | –
19 | CCN[C@H]1C[C@H](C)S(=O)(=O)c2sc(S(N)(=O)=O)cc21 [Dorzolamide hydrochloride] | 124% | –
20 | CO[C@@]1(NC(=O)CSCC#N)C(=O)N2C(C(=O)O)=C(CSc3nnnn3C)CS[C@@H]21 [Cefmetazole sodium salt] | 105% | –
21 | CO[C@@]1(NC(=O)CSCC#N)C(=O)N2C(C(=O)O)=C(CSc3nnnn3C)CS[C@@H]21 [Cefmetazole sodium] | 87.3% | –

Row | Compound | HMGB1-induced TNF-alpha production (compound concentration: 3 uM) | HMGB1-induced TNF-alpha production [1] [%]
22 | CO[C@@]1(NC(=O)CSCC#N)C(=O)N2C(C(=O)O)=C(CSc3nnnn3C)CS[C@@H]21 | 81.3% | –
23 | C[C@@H]1[C@H](O)[C@@H](C)/C=C/C=C/C=C/C=C/C=C/C=C/C=C/[C@H](O[C@@H]2O[C@H](C)[C@@H](O)[C@H](N)[C@@H]2O)C[C@@H]2O[C@](O)(C[C@@H](O)C[C@@H](O)[C@H](O)CC[C@@H](O)C[C@@H](O)CC(=O)O[C@H]1C)C[C@H](O)[C@H]2C(=O)O | 110 ± 56% | –
24 | C[C@@H]1[C@H](O)[C@@H](C)/C=C/C=C/C=C/C=C/C=C/C=C/C=C/[C@H](O[C@@H]2O[C@H](C)[C@@H](O)[C@H](N)[C@@H]2O)C[C@@H]2O[C@](O)(C[C@@H](O)C[C@@H](O)[C@H](O)CC[C@@H](O)C[C@@H](O)CC(=O)O[C@H]1C)C[C@H](O)[C@H]2C(=O)O [Amphotericin B] | 111% | –
25 | CCC(=O)Oc1cc2c(C)cc(=O)oc2cc1Cl | – | 71.1
26 | CCOC(=O)C(C)(C)Oc1ccc(Cl)cc1 [Clofibrate] | 96.7 ± 11% | –
27 | CCOC(=O)C(C)(C)Oc1ccc(Cl)cc1 | 74.7% | –
28 | c1cnc2c(c1)ccc1cccnc12 [1,10-Phenanthroline monohydrate] | 115% | –
29 | CC(C)NC[C@H](O)COc1ccc(CC(N)=O)cc1 [S(-)-Atenolol] | 104% | –
30 | CC(C)NC[C@H](O)COc1ccc(CC(N)=O)cc1 [(S)-(-)-Atenolol] | 78.7% | –
31 | CCC(NC(C)C)C(O)c1ccc(O)c(O)c1 (configuration not stated) | 53.6% | –
32 | CCC(NC(C)C)C(O)c1ccc(O)c(O)c1 (configuration not stated) [Isotharine mesylate] | 52.3% | –
33 | CCC(NC(C)C)C(O)c1ccc(O)c(O)c1 (configuration not stated) [Isoetharine mesylate salt] | 60.3% | –
34 | CCC(Cc1c(I)cc(I)c(N)c1I)C(=O)O (configuration not stated) [Iopanoic acid] | 130% | –
35 | CCC(Cc1c(I)cc(I)c(N)c1I)C(=O)O (configuration not stated) | 55.7% | –
36 | CN1CCc2cccc3c2[C@H]1Cc1ccc(O)c(O)c1-3 [Apomorphine R (-)] | 108% | –
37 | CN1CCc2cccc3c2[C@H]1Cc1ccc(O)c(O)c1-3 [R(-) Apomorphine hydrochloride hemihydrate] | 78.4% | –
38 | CN1CCc2cccc3c2[C@H]1Cc1ccc(O)c(O)c1-3 | 80.2% | –
39 | CN1CCc2cccc3c2[C@H]1Cc1ccc(O)c(O)c1-3 [Apomorphine hydrochloride hemihydrate] | 102% | –
40 | O=C1C=C2CC3(O)COc4c(ccc(O)c4O)C3=C2C=C1O (configuration not stated) [Hematein] | – | 99.6
41 | C[C@]12CC[C@@H]3c4ccc(O)cc4CC[C@H]3[C@@H]1CC[C@@H]2OC(=O)CCC1CCCC1 [beta-estradiol 17-cypionate] | – | 66.3
42 | C[C@]12CC[C@@H]3c4ccc(O)cc4CC[C@H]3[C@@H]1CC[C@@H]2OC(=O)CCC1CCCC1 | 66.6% | –

Row | Compound | HMGB1-induced TNF-alpha production (compound concentration: 3 uM) | HMGB1-induced TNF-alpha production [1] [%]
43 | O=C1CC(c2ccc(O)cc2)Oc2ccccc21 (configuration not stated) [4'-hydroxyflavanone] | – | 66.4
44 | CN(C)CCOC(=O)COc1ccc(Cl)cc1 | 87.2% | –
45 | CN(C)CCOC(=O)COc1ccc(Cl)cc1 [Meclofenoxate hydrochloride] | 100% | –
46 | CN(C)CCOC(=O)COc1ccc(Cl)cc1 [Centrophenoxine hydrochloride] | 85.1% | –
47 | Brc1c(NC2=NCCN2)ccc2nccnc12 | 104% | –
48 | O=C(OCc1ccccc1)c1ccccc1 | 93.7% | –
49 | N#C/C(=C\c1ccc(O)c(O)c1)C(=O)NCCCNC(=O)/C(C#N)=C/c1ccc(O)c(O)c1 [Tyrphostin AG 537] | 119% | –
50 | CCCc1nc(C(C)(C)O)c(C(=O)O)n1Cc1ccc(-c2ccccc2-c2nnn[nH]2)cc1 [Olmesartan] | 99.5 ± 7.6% | –
51 | Cc1ccc2c(Cl)cc(Cl)c(O)c2n1 | 74.7% | –
52 | N=C(N)N/N=C/c1c(Cl)cccc1Cl [Guanabenz] | 95.2% | –
53 | N=C(N)N/N=C/c1c(Cl)cccc1Cl | 85% | –
54 | N=C(N)N/N=C/c1c(Cl)cccc1Cl [Guanabenz acetate] | 82.1 ± 6.1% | –
55 | OC(CCN1CCCCC1)(c1ccccc1)C1CCCCC1 (configuration not stated) | 96.4% | –
56 | OC(CCN1CCCCC1)(c1ccccc1)C1CCCCC1 (configuration not stated) [Trihexyphenidyl-D,L Hydrochloride] | 96.4% | –
57 | OC(CCN1CCCCC1)(c1ccccc1)C1CCCCC1 (configuration not stated) [Trihexyphenidyl hydrochloride] | 103% | –
58 | CN(C)CC[C@@H](c1ccc(Cl)cc1)c1ccccn1 | 88.8% and 100% | –
59 | CN(CCOc1ccc(CC2SC(=O)NC2=O)cc1)c1ccccn1 (configuration not stated) [Rosiglitazone] | 92.3% | –
60 | CCC(=O)OCC(=O)[C@@]1(OC(=O)CC)[C@H](C)C[C@H]2[C@H]3[C@H]([C@@H](O)C[C@@]21C)[C@@]1(C)C=CC(=O)C=C1C[C@H]3Cl [Alclometasone dipropionate] | 43% | –
61 | CO[C@@H]1[C@H](O)[C@@H](CO)O[C@H]1n1ccc(N)nc1=O [2'-O-Methylcytidine] | – | 94.7
62 | O=C(CC(=O)c1ccccc1)c1ccccc1 | 101% | –
63 | C[C@H]1C[C@@H]2[C@H]([C@@H](O)C[C@@]3(C)[C@H]2CC[C@]3(O)C(=O)COC(=O)CCC(=O)O)[C@@]2(C)C=CC(=O)C=C12 | 40.5% | –

Row | Compound | HMGB1-induced TNF-alpha production (compound concentration: 3 uM) | HMGB1-induced TNF-alpha production [1] [%]
64 | Nc1cc(-c2ccncc2)c[nH]c1=O [Amrinone] | 72.5% | –
65 | c1ccc2c(c1)CCCc1cc(NCCN3CCOCC3)nnc1-2 | 88.9% | –
66 | CC(N)C12CC3CC(CC(C3)C1)C2 (configuration not stated) [Rimantadine] | 103 ± 20% | –
67 | CC(N)C12CC3CC(CC(C3)C1)C2 (configuration not stated) | 89.5% | –
68 | COc1cccc(-c2cc(=O)c3c(O)cccc3o2)c1 [5-Hydroxy-3'-methoxyflavone] | – | 89.1
69 | COC(=O)C(N)CS (configuration not stated) | 75.7% | –
70 | COc1ccc(-c2oc3ccccc3c(=O)c2O)cc1 [4'-Methoxyflavonol] | – | 77.8
71 | CN(C)[C@@H]1C(O)=C(C(N)=O)C(=O)[C@@]2(O)C(O)=C3C(=O)c4c(O)ccc(Cl)c4[C@@H](O)[C@H]3C[C@@H]12 | 91.6% | –
72 | CN(C)[C@@H]1C(O)=C(C(N)=O)C(=O)[C@@]2(O)C(O)=C3C(=O)c4c(O)ccc(Cl)c4[C@@H](O)[C@H]3C[C@@H]12 [Demeclocycline hydrochloride] | 89.2 ± 10% | –
73 | O=C(O)/C(=C\c1c(C(=O)O)[nH]c2cc(Cl)cc(Cl)c12)c1ccccc1 | 114% | –
74 | O=C1c2ccccc2S(=O)(=O)N1CCCCN1CCN(c2ncccn2)CC1 [Ipsapirone] | 114% | –
75 | Cn1c([N+](=O)[O-])cnc1COC(N)=O | 88.4% | –
76 | Cn1c([N+](=O)[O-])cnc1COC(N)=O [Ronidazole] | 119% | –
77 | COC(=O)c1ccc(O)c2nc3c(C=O)c(O)cc(O)c3nc12 [Lomofungin] | 93.9% | –
78 | NC(N)=O | 80.9% | –
79 | C[C@@H]1C[C@@]2(O[C@H]2C)C(=O)O[C@@H]2CCN(C)C/C=C(/COC(=O)[C@]1(C)O)C2=O [Otosenine] | – | 68.8
80 | COc1cccc2oc(-c3ccc(O)cc3)cc(=O)c12 | – | 53.7
81 | COc1ccc(C(=O)NCc2ccc(OCCN(C)C)cc2)cc1OC [Itopride] | 91.2 ± 8.7% | –
82 | COc1ccc(C(=O)NCc2ccc(OCCN(C)C)cc2)cc1OC | 122% | –

Rewritten with tabs: part of the list above
Row	Compound	HMGB1-induced TNF-alpha production (compound concentration: 3 uM)	HMGB1-induced TNF-alpha production [1] [%]
72	CN(C)[C@@H]1C(O)=C(C(N)=O)C(=O)[C@@]2(O)C(O)=C3C(=O)c4c(O)ccc(Cl)c4[C@@H](O)[C@H]3C[C@@H]12 [Demeclocycline hydrochloride]	89.2 ± 10%	–
73	O=C(O)/C(=C\c1c(C(=O)O)[nH]c2cc(Cl)cc(Cl)c12)c1ccccc1	114%	–
74	O=C1c2ccccc2S(=O)(=O)N1CCCCN1CCN(c2ncccn2)CC1 [Ipsapirone]	114%	–
75	Cn1c([N+](=O)[O-])cnc1COC(N)=O	88.4%	–
76	Cn1c([N+](=O)[O-])cnc1COC(N)=O [Ronidazole]	119%	–
77	COC(=O)c1ccc(O)c2nc3c(C=O)c(O)cc(O)c3nc12 [Lomofungin]	93.9%	–
78	NC(N)=O	80.9%	–
